# According to the supplement of paper PMC8728848:
# This is one part of the list.
# Tests used:
# Assay in all cases: glycan array binding signal (z-score within array); higher = stronger binding
# Conditions in all cases: glycan notation: IUPAC condensed, linker removed
# [1] = biological target: Gal6S(b1-4)Glc6S
# How it was run: (§1)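 Arrays were curated from the Consortium for Functional Glycomics database, 3228 in total, and kept only where the protein sequence was available. Binding is expressed as a within-array Z-score. This score was averaged across arrays of the same protein sequence at different concentrations or buffers and across linkers, and negative values can be read as non-binding.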
# [2] = biological target: Gal6S(b1-4)GlcNAc
# How it was run: as §1
# [3] = biological target: Gal6S(b1-4)GlcNAc6S
# How it was run: as §1
# [4] = biological target: GalNAc(a1-3)Gal
# How it was run: as §1
# [5] = biological target: GalNAc(a1-3)GalNAc
# How it was run: as §1
# [6] = biological target: GalNAc(a1-3)GalNAc(a1-3)Gal(a1-4)Gal(b1-4)GlcNAc
# How it was run: as §1
# [7] = biological target: GalNAc(a1-3)GalNAc(b1-3)Gal(a1-4)Gal(b1-4)Glc
# How it was run: as §1
# [8] = biological target: GalNAc(b1-3)Gal
# How it was run: as §1
# [9] = biological target: GalNAc(b1-3)Gal(a1-4)Gal(b1-4)GlcNAc
# How it was run: as §1
# [10] = biological target: GalNAc(b1-3)Gal(a1-4)Gal(b1-4)GlcNAc(b1-3)Gal(b1-4)Glc
# How it was run: as §1
# [11] = biological target: GalNAc(b1-3)Gal(a1-6)Gal(b1-4)Glc
# How it was run: as §1
# [12] = biological target: GalNAc(b1-3)GalNAc
# How it was run: as §1
# [13] = biological target: GalNAc(b1-3)GlcNAc
# How it was run: as §1
# [14] = biological target: GalNAc(b1-4)Gal(b1-4)Glc
# How it was run: as §1
# [15] = biological target: GalNAc(b1-4)GlcNAc
# How it was run: as §1
# [16] = biological target: GalNAc(b1-4)GlcNAc(b1-2)Man
# How it was run: as §1
# [17] = biological target: GalNAc(b1-4)GlcNAc(b1-2)Man(a1-3)[GalNAc(b1-4)GlcNAc(b1-2)Man(a1-6)]Man(b1-4)GlcNAc(b1-4)GlcNAc
# How it was run: as §1
# [18] = biological target: GalNAc(b1-4)GlcNAc(b1-3)GalNAc(b1-4)GlcNAc
# How it was run: as §1
# [19] = biological target: GalNAc(b1-4)GlcNAc6S
# How it was run: as §1
# [20] = biological target: GalNAc(b1-6)GalNAc
# How it was run: as §1
# [21] = biological target: GalNAc3S(b1-4)GlcNAc
# How it was run: as §1
# [22] = biological target: GalNAc3S(b1-4)GlcNAc3S
# How it was run: as §1
# [23] = biological target: GalNAc3S(b1-4)[Fuc(a1-3)]GlcNAc
# How it was run: as §1
# [24] = biological target: GalNAc4S6S(b1-4)GlcNAc
# How it was run: as §1
# [25] = biological target: GalNAc6S(b1-4)GlcNAc
# How it was run: as §1
# [26] = biological target: Glc(a1-4)Glc
# How it was run: as §1
# [27] = biological target: Glc(a1-4)Glc(a1-4)Glc(a1-4)Glc
# How it was run: as §1
# [28] = biological target: Glc(a1-6)Glc(a1-6)Glc
# How it was run: as §1
# [29] = biological target: Glc(a1-6)Glc(a1-6)Glc(a1-6)Glc
# How it was run: as §1
# [30] = biological target: Glc(b1-4)Glc
# How it was run: as §1
# [31] = biological target: Glc(b1-6)Glc
# How it was run: as §1
# [32] = biological target: GlcA(b1-3)Gal
# How it was run: as §1
# [33] = biological target: GlcA(b1-3)GlcNAc
# How it was run: as §1
# [34] = biological target: GlcA(b1-6)Gal
# How it was run: as §1
# [35] = biological target: GlcA3S(b1-3)Gal(b1-4)GlcNAc(b1-2)Man
# How it was run: as §1
# [36] = biological target: GlcA3S(b1-3)Gal(b1-4)GlcNAc(b1-3)Gal(b1-4)Glc
# How it was run: as §1
# [37] = biological target: GlcNAc(a1-3)Gal(b1-4)GlcNAc
# How it was run: as §1
binder,measurement,setting,value
"HopZSSI-T (Helicobacter pylori), B5Z6D0 (protein) MGSSHHHHHHSSGLVPRGSHMENLYFQGEDNGFFISAGYQIGEAAQMVKNTGELKKLSDTYENLSNLLTNFNNLNQAVTNASSPSEINAAIDNLKANTQGLTGEKTNSPAYQAVYLALNAAVGLWNVIAYNVQCGPGNSSQQSVTFEGQPGHNSSSINCNLTGYNNGVSGPLSIDNFKQLNQAYQVLQQALKQGVPVLNNTNQKIEVKVTTQTNGQSSKETTTTTTTNDAQTLLQEASKMIDVLTTNCPWVNHNPGQNGGAPWGLIRQECVSGFATEFSAVTSMIKNAQEIVTQAQSLNANQNNQNAPQDFNPYTSADRAFAQNMLNHAQAQAKILELADQMKKDLNTIPSQFITNYLAACRIDGTTPSQGVTNNTWGAGCAYVEETITALNNSLAHFGTQAEQIKQSELLARTILDFRGSLSTLNSTYNSITTTASNTPNSPFLKNLISQSTNPNNPGGLQAVYQVNQSAYSQLLSATQELGHNPFRRIGLISSQT",glycan array binding signal (z-score),[1],-0.2
same,glycan array binding signal (z-score),[2],-0.54
same,glycan array binding signal (z-score),[3],-0.115
same,glycan array binding signal (z-score),[4],-0.614
same,glycan array binding signal (z-score),[5],-0.111
same,glycan array binding signal (z-score),[6],0.199
same,glycan array binding signal (z-score),[7],-0.104
same,glycan array binding signal (z-score),[8],-0.269
same,glycan array binding signal (z-score),[9],0.351
same,glycan array binding signal (z-score),[10],0.07
same,glycan array binding signal (z-score),[11],-0.001
same,glycan array binding signal (z-score),[12],-0.395
same,glycan array binding signal (z-score),[13],0.689
same,glycan array binding signal (z-score),[14],-0.288
same,glycan array binding signal (z-score),[15],2.32
same,glycan array binding signal (z-score),[16],-0.192
same,glycan array binding signal (z-score),[17],0.375
same,glycan array binding signal (z-score),[18],0.498
same,glycan array binding signal (z-score),[19],-0.865
same,glycan array binding signal (z-score),[20],-0.469
same,glycan array binding signal (z-score),[21],0.208
same,glycan array binding signal (z-score),[22],-0.418
same,glycan array binding signal (z-score),[23],-0.683
same,glycan array binding signal (z-score),[24],3.87
same,glycan array binding signal (z-score),[25],9.12
same,glycan array binding signal (z-score),[26],0.409
same,glycan array binding signal (z-score),[27],-0.263
same,glycan array binding signal (z-score),[28],-0.245
same,glycan array binding signal (z-score),[29],-0.288
same,glycan array binding signal (z-score),[30],-0.748
same,glycan array binding signal (z-score),[31],0.202
same,glycan array binding signal (z-score),[32],-0.416
same,glycan array binding signal (z-score),[33],-0.669
same,glycan array binding signal (z-score),[34],-0.427
same,glycan array binding signal (z-score),[35],-0.303
same,glycan array binding signal (z-score),[36],-0.717
same,glycan array binding signal (z-score),[37],-0.156

# Two neighbouring records already listed, quoted:
binder,measurement,setting,value
"HopZSSI-T (Helicobacter pylori), B5Z6D0 (protein) MGSSHHHHHHSSGLVPRGSHMENLYFQGEDNGFFISAGYQIGEAAQMVKNTGELKKLSDTYENLSNLLTNFNNLNQAVTNASSPSEINAAIDNLKANTQGLTGEKTNSPAYQAVYLALNAAVGLWNVIAYNVQCGPGNSSQQSVTFEGQPGHNSSSINCNLTGYNNGVSGPLSIDNFKQLNQAYQVLQQALKQGVPVLNNTNQKIEVKVTTQTNGQSSKETTTTTTTNDAQTLLQEASKMIDVLTTNCPWVNHNPGQNGGAPWGLIRQECVSGFATEFSAVTSMIKNAQEIVTQAQSLNANQNNQNAPQDFNPYTSADRAFAQNMLNHAQAQAKILELADQMKKDLNTIPSQFITNYLAACRIDGTTPSQGVTNNTWGAGCAYVEETITALNNSLAHFGTQAEQIKQSELLARTILDFRGSLSTLNSTYNSITTTASNTPNSPFLKNLISQSTNPNNPGGLQAVYQVNQSAYSQLLSATQELGHNPFRRIGLISSQT",glycan array binding signal (z-score),[4],-0.614
same,glycan array binding signal (z-score),[5],-0.111
